# PubChem BioAssay AID248 (DTP/NCI, 2004)
# The list does not hold the whole screen: it gathers tests that were run many times, whatever their T/C, doses with no T/C, and many T/C values between a quarter and a half above the control. Other doses and runs of a compound stand elsewhere. T/C gives the treated animals as a percentage of the vehicle group. Some doses have a count of surviving animals in place of a T/C: the source holds a T/C of zero for them, seemingly a mark for toxic or unscored doses. Some doses without a T/C left all or most animals alive at the check, yet need not have been tolerated: the source hardly ever lists a survival T/C far under the control, and the zero likely stands for such cases as well. Survivors were counted at the toxicity check, usually on the fifth day, unless a day is given; later deaths do not show. Schedules are NCI's codes, taken here to give the interval after Q, in days (D) or hours (H), and the number of doses after X. Some schedule codes hold Z or #, which are not explained here. For survival time, the PubChem record calls one and a half times the control and up active, and a quarter to a half above the control has no call in these data; cut-offs in other NCI protocols can differ.
# System: L1210 leukemia ip in BDF1 mice, survival T/C
# Experiment: NCI In Vivo Anticancer Drug Screen. Data for tumor model L1210 Leukemia (intraperitoneal) in B6D2F1 (BDF1) mice
# Details: T/C endpoint: mean survival time, higher T/C = longer survival
# [1] = dose: 200.0 mg/kg/injection, schedule: Q01DX009 (ip), vehicle: carboxymethylcellulose (CMC)
structure (smiles),measurement,setting,value
NC(=O)N(Cc1ccccc1)N=O,survivor count,"dose: 200.0 mg/kg/injection, schedule: Q01DX Z (ip), vehicle: carboxymethylcellulose (CMC)",6 of 6
same,survivor count,"dose: 250.0 mg/kg/injection, schedule: Q01DX Z (ip), vehicle: carboxymethylcellulose (CMC)",3 of 6
same,survivor count,"dose: 300.0 mg/kg/injection, schedule: Q01DX Z (ip), vehicle: carboxymethylcellulose (CMC)",0 of 6
CNNc1cc(CO)cnc1SC,survivor count,"dose: 400.0 mg/kg/injection, schedule: Q01DX001 (ip), vehicle: saline",0 of 6
C[CH2][Sn]([F])([CH2]C)[CH2]C,survivor count,"dose: 12.5 mg/kg/injection, schedule: Q04DX002 (ip), vehicle: gum acacia",1 of 3
same,survivor count,"dose: 25.0 mg/kg/injection, schedule: Q04DX002 (ip), vehicle: gum acacia",0 of 3
same,survivor count,"dose: 50.0 mg/kg/injection, schedule: Q04DX002 (ip), vehicle: gum acacia",0 of 3
same,survivor count,"dose: 100.0 mg/kg/injection, schedule: Q04DX002 (ip), vehicle: gum acacia",0 of 3
same,survivor count,"dose: 200.0 mg/kg/injection, schedule: Q04DX002 (ip), vehicle: gum acacia",0 of 3
same,survivor count,"dose: 400.0 mg/kg/injection, schedule: Q04DX002 (ip), vehicle: gum acacia",0 of 3
Cc1nccc2c(C)c3c(cc12)c1ccccc1n3CCC1CO1 (configuration not stated),T/C,"dose: 300.0 mg/kg/injection, schedule: Q04DX003 (ip), vehicle: water",128 % of control
CC1(C)N=C(N)N=C(N)N1c1ccc(OCC(=O)Nc2ccc(S(=O)(=O)F)cc2)c(Cl)c1,survivor count,"dose: 100.0 mg/kg/injection, schedule: Q01DX009 (ip), vehicle: carboxymethylcellulose (CMC)",5 of 6
same,T/C,"dose: 100.0 mg/kg/injection, schedule: Q01DX009 (ip), vehicle: saline",133 % of control
same,T/C,[1],127 % of control
same,survivor count,[1],0 of 6
same,T/C,"dose: 200.0 mg/kg/injection, schedule: Q01DX009 (ip), vehicle: saline",137 % of control
same,survivor count,"dose: 400.0 mg/kg/injection, schedule: Q01DX009 (ip), vehicle: carboxymethylcellulose (CMC)",0 of 6
